Measurements reported in patent publication US5932545A, “Antiangiogenic drug to treat cancer, arthritis and retinopathy” (Abbott Laboratories, priority 1998, dated 1999).
Part of at least one peptide drawing is inferred or uncertain, most often the ends. Square brackets hold non-standard residues; d marks the D form. Peptide text beside a SMILES is read from it.

System: rat corneal neovascularization
Assay: rat corneal neovascularization assay (hydron pellets, peptide alone or with bFGF)
Assay type: in vivo
Details: 7 days
Procedure: Inhibition of angiogenesis in vivo was measured using a rat corneal neovascularization assay. Accordingly, 6% hydron pellets containing peptide alone or in combination with 0.15 μM bFGF were implanted in rat corneas 1-1.5 mm from the limbus. at 7 days, the rats were sacrificed, perfused with colloidal carbon to visualize vessels and the corneas were extracted. Vigorous vessel ingrowth was scored as a positive angiogenic response. Induction control indicates response to 0.15 μM bFGF alone.

CC[C@@H](C)[C@@H](NC(=O)[C@@H](NC(=O)CNC(C)=O)C(C)C)C(=O)N[C@H](C(=O)N[C@@H](CCCNC(=N)N)C(=O)N[C@H](C(=O)N[C@@H](CCCNC(=N)N)C(=O)O)[C@@H](C)CC)[C@@H](C)O [Ac-Gly-Val-D-Ile-Thr-Arg-Ile-Arg] (Ac-GV[dI]TRIR-OH)
Positive Corneas/Total Implanted, Tested + bFGF (peptide + 0.15 μM bFGF, peptide concentration not given): 0/3 | Positive Corneas/Total Implanted, Tested Alone (peptide alone in hydron pellet, concentration not given): 0/3
